± gives the standard deviation of the averaged measurements. This is a selection; strong and weak results do not stand in their true shares.
Compound: Nc1ncnc2c1ncn2[C@@H]1O[C@H](COP(=O)(O)OP(=O)(O)OP(=O)(O)O)[C@@H](O)[C@H]1O [adenosine triphosphate]
Assay: NP40-soluble protein abundance relative to vehicle (solubility fold change) (ratio); higher = more soluble protein in presence of ATP
Method in brief: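 In three independent experiments, Jurkat crude lysate made by Dounce homogenisation was treated for 10 min at room temperature and then 3 min at 37 °C with eight concentrations ranging from 0.1 to 10 mM. It was then solubilised with 0.8% NP40 plus benzonase for 60 min at 4 °C and ultracentrifuged. The supernatant was TMT-labelled for LC-MS/MS, and each value is the fold change against the detergent-processed vehicle for the same replicate, using vsn-normalised intensities.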

Sequences of proteins named here, by UniProt entry; tags and fusion partners are left off. A change or cut given only in a name is not applied to a line headed by its entry.
UniProt O00308: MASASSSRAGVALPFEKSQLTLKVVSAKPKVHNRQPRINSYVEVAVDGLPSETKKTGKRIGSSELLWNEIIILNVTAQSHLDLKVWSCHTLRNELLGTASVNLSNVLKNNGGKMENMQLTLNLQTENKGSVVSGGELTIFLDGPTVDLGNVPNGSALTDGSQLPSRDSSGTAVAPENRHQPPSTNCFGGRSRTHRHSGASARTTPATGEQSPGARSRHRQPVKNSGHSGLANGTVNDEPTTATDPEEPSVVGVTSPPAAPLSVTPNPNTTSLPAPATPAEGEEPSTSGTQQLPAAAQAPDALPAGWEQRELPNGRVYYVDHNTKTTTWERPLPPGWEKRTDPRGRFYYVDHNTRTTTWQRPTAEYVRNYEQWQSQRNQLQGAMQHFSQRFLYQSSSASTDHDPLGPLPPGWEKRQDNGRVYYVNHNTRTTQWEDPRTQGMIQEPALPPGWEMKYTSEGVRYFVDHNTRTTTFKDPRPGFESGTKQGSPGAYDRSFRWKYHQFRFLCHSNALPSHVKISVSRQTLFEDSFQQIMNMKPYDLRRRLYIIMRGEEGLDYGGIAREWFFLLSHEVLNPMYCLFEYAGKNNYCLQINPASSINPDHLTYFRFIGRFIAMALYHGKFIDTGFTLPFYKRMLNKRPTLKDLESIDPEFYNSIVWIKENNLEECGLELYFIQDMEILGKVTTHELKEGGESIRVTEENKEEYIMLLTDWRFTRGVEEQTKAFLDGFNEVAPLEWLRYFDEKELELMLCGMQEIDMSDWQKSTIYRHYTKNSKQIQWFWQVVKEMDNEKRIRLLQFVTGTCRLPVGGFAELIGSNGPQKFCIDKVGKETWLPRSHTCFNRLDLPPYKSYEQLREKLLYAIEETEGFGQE
UniProt O43896: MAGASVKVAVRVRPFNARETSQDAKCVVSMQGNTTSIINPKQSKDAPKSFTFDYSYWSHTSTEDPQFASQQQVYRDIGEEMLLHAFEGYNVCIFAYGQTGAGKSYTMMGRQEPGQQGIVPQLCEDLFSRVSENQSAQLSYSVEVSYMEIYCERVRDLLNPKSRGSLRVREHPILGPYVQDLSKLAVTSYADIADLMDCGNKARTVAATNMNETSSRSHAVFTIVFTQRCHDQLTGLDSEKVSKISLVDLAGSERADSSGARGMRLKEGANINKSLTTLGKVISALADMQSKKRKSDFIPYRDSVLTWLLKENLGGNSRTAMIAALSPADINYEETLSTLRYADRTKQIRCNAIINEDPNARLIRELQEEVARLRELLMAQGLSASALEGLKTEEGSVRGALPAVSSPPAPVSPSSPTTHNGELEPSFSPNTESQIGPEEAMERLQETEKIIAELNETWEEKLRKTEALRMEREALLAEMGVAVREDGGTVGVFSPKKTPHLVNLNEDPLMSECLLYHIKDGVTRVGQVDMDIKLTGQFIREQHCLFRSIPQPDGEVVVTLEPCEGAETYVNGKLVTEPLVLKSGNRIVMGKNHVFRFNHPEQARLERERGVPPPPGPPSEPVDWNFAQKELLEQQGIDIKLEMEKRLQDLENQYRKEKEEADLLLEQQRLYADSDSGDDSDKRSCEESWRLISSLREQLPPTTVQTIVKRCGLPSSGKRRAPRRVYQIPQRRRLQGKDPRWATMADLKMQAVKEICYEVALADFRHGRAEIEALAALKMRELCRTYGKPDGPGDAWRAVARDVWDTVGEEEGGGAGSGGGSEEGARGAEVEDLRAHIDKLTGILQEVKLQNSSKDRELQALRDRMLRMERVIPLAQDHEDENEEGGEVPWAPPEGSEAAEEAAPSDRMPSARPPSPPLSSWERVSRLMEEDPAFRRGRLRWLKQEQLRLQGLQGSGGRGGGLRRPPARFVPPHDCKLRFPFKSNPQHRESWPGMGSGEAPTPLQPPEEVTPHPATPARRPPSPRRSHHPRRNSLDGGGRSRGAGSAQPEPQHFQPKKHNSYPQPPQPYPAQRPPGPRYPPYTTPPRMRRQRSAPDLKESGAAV
UniProt O14735: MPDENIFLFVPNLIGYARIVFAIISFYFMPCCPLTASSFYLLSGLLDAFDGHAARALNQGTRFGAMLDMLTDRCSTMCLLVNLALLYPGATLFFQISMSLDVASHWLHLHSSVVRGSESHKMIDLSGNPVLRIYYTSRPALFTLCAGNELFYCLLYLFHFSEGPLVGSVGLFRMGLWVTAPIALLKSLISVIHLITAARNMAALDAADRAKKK
UniProt O15160, whole entry: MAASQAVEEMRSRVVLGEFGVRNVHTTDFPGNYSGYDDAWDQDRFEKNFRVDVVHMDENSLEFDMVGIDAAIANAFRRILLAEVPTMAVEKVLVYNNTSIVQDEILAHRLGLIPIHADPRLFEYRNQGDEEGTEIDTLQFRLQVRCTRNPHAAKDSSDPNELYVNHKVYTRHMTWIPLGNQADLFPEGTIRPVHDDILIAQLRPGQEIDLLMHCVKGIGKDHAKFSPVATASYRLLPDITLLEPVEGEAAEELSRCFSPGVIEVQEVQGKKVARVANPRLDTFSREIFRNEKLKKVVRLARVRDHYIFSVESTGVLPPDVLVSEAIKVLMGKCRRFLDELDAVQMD
UniProt O15116: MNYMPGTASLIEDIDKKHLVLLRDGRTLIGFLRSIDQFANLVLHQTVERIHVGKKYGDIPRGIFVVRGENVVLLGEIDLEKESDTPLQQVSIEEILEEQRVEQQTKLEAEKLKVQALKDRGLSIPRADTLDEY
UniProt O15212, whole entry: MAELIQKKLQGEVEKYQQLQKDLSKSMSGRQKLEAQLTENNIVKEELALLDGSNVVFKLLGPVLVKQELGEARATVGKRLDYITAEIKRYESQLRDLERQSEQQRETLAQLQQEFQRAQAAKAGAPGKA
UniProt O43920, whole entry: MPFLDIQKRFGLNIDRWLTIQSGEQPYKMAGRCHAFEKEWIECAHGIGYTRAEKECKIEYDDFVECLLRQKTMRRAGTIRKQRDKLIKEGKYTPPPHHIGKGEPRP
UniProt O15498: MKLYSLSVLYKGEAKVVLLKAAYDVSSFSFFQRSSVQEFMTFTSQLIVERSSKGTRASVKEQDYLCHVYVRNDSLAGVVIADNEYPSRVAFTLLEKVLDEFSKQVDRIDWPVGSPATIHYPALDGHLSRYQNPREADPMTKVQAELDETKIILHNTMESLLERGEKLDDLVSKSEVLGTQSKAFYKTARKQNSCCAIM
UniProt O43402: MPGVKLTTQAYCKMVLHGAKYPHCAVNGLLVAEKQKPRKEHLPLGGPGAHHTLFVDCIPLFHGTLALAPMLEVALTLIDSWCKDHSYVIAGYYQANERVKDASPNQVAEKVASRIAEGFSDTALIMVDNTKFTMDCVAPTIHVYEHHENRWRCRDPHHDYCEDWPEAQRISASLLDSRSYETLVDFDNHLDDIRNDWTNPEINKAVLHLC
UniProt O00221: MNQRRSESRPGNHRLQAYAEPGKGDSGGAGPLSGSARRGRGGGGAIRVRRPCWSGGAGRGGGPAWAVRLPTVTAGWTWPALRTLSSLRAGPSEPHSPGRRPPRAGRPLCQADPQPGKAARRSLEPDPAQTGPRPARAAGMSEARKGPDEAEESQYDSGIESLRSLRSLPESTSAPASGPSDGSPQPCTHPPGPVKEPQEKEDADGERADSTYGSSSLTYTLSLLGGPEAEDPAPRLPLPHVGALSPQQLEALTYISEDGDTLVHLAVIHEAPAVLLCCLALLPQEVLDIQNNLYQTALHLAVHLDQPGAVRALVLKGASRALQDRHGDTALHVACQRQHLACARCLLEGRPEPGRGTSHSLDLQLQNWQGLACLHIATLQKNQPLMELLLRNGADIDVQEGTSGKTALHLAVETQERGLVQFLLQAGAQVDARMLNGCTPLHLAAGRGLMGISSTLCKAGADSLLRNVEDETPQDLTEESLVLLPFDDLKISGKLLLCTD
UniProt O43524: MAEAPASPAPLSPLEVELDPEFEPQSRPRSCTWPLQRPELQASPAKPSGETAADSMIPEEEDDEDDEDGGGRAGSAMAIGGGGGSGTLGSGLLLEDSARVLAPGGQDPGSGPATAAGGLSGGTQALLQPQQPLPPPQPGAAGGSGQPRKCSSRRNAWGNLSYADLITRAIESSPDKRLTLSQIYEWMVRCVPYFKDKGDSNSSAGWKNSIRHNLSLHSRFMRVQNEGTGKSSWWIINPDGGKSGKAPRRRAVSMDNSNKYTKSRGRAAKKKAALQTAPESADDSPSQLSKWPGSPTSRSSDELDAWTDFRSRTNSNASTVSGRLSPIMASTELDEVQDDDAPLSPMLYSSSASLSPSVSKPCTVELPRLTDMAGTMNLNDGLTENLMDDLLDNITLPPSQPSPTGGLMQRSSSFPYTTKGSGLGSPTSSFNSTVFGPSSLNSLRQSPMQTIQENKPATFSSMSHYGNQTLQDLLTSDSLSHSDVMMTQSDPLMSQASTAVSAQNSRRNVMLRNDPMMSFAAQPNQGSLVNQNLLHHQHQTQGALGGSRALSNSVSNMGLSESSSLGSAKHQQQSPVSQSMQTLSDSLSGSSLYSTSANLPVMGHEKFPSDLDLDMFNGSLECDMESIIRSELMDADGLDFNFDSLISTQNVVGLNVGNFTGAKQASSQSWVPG
UniProt O00233: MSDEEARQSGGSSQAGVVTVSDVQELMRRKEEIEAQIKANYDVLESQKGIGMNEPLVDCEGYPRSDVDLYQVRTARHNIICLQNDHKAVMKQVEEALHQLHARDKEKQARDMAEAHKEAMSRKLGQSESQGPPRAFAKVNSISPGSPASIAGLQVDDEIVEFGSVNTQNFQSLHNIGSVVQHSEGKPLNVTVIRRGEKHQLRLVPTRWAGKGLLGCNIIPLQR
UniProt O15270: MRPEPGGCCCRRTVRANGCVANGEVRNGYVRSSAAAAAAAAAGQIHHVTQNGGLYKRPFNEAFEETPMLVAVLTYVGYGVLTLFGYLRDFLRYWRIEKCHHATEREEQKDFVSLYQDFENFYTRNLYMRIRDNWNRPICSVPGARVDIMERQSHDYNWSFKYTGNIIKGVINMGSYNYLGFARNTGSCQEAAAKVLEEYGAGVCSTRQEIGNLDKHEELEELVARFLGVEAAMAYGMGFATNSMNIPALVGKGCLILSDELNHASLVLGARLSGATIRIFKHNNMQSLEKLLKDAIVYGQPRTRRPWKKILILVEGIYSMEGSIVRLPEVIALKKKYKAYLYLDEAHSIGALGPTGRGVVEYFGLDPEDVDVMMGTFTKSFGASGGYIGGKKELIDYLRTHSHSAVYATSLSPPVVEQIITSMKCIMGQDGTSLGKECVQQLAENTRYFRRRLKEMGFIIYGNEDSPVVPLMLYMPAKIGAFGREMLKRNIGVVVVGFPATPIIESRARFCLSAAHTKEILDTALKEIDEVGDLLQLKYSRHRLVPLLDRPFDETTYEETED
UniProt O60343: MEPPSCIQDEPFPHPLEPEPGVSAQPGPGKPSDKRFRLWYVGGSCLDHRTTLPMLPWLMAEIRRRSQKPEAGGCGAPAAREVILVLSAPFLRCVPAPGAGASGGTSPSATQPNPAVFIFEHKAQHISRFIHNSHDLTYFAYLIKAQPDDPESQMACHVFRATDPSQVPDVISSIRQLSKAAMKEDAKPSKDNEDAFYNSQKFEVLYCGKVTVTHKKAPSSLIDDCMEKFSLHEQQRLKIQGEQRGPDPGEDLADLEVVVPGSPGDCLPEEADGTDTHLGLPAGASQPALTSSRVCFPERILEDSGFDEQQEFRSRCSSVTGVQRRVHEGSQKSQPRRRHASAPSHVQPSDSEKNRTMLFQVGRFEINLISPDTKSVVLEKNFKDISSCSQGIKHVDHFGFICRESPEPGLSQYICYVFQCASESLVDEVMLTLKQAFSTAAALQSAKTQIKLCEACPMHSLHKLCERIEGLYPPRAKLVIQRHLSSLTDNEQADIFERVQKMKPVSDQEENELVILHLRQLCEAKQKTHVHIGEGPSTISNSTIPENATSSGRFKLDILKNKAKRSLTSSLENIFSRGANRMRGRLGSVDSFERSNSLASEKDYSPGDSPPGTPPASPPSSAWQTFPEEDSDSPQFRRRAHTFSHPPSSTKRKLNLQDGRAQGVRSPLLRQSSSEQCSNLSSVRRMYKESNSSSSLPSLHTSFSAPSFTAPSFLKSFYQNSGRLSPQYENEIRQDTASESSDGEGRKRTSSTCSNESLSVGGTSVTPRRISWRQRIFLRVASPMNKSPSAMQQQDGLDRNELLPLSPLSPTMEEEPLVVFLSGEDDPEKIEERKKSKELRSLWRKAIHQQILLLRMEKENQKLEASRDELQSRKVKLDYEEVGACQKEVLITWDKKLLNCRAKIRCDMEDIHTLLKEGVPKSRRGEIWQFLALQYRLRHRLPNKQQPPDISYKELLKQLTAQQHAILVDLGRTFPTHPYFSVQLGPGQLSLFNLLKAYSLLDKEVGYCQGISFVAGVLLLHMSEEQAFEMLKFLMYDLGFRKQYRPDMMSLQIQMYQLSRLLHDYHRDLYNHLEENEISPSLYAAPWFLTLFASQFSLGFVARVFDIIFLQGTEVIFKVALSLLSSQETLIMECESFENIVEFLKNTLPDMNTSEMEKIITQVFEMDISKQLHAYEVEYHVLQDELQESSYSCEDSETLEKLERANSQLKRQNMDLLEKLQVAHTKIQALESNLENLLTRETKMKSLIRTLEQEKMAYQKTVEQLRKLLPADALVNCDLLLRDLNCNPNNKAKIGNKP

Target	NP40-soluble protein abundance (concentration: 1mM)	NP40-soluble protein abundance (concentration: 2mM)	NP40-soluble protein abundance (concentration: 4mM)	NP40-soluble protein abundance (concentration: 6mM)	NP40-soluble protein abundance (concentration: 8mM)	NP40-soluble protein abundance (concentration: 10mM)
UniProt O00308 and related entries	1.15 ± 0.3	1.36 ± 0.25	1.58 ± 0.35	1.61 ± 0.27	1.54 ± 0.47	1.6 ± 0.36
UniProt O15015 and related entries	1.02 ± 0.045	1.044 ± 0.0076	1.03 ± 0.029	1.089 ± 0.0076	1.03 ± 0.047	1.05 ± 0.043
UniProt O43903	0.936 ± 0.038	0.978 ± 0.044	0.964 ± 0.022	0.978 ± 0.026	0.947 ± 0.043	0.964 ± 0.054
UniProt O43561-3|O43561 and related entries	0.845 ± 0.12	0.841 ± 0.082	0.876 ± 0.036	0.834 ± 0.13	0.86 ± 0.041	0.782 ± 0.078
UniProt O43852 and related entries	0.965 ± 0.045	0.9613 ± 0.0089	0.94 ± 0.01	0.965 ± 0.014	0.934 ± 0.019	0.897 ± 0.047
KIF1C (UniProt O43896)	1.07 ± 0.047	1.08 ± 0.086	1.1 ± 0.069	1.08 ± 0.023	1.083 ± 0.0017	1.09 ± 0.027
MED14 (UniProt O60244)	1 ± 0.02	1.06 ± 0.036	1.06 ± 0.034	1.03 ± 0.053	1.03 ± 0.05	1.04 ± 0.092
UniProt O14735 and related entries	0.835 ± 0.081	0.923 ± 0.16	0.927 ± 0.12	0.784 ± 0.087	0.921 ± 0.06	1.03 ± 0.055
UniProt O43150 and related entries	1.05 ± 0.054	1.06 ± 0.035	1.05 ± 0.023	1.02 ± 0.014	1.02 ± 0.016	1.02 ± 0.068
POLR1C (UniProt O15160)	1.05 ± 0.034	1.02 ± 0.014	1.053 ± 0.0076	1.03 ± 0.033	1.05 ± 0.015	1.04 ± 0.041
UniProt O43399 and related entries	0.867 ± 0.1	0.832 ± 0.12	0.822 ± 0.097	0.861 ± 0.12	0.805 ± 0.04	0.75 ± 0.14
SLC33A1 (UniProt O00400)	1.04 ± 0.13	0.992 ± 0.056	0.989 ± 0.079	0.901 ± 0.19	1.02 ± 0.16	0.972 ± 0.075
AIP (UniProt O00170)	0.961 ± 0.052	0.959 ± 0.033	0.94 ± 0.063	0.94 ± 0.073	0.955 ± 0.038	0.933 ± 0.04
UniProt O00231 and related entries	0.96 ± 0.04	0.912 ± 0.029	0.884 ± 0.029	0.914 ± 0.062	0.931 ± 0.031	0.874 ± 0.026
FADS1 (UniProt O60427)	1.01 ± 0.075	1.06 ± 0.023	1.01 ± 0.033	0.956 ± 0.042	1.042 ± 0.01	1.02 ± 0.036
LANCL1 (UniProt O43813)	0.962 ± 0.13	0.952 ± 0.1	0.921 ± 0.075	0.867 ± 0.16	0.924 ± 0.046	0.933 ± 0.063
UniProt O60341	1.02 ± 0.035	1.02 ± 0.027	1 ± 0.021	1 ± 0.011	1.04 ± 0.041	1.07 ± 0.058
SLC9A3R1 (UniProt O14745)	0.917 ± 0.033	0.9056 ± 0.0088	0.876 ± 0.012	0.94 ± 0.017	0.884 ± 0.035	0.865 ± 0.035
EEF2K (UniProt O00418)	0.9871 ± 0.0015	0.964 ± 0.038	0.935 ± 0.0095	0.972 ± 0.027	0.959 ± 0.014	0.953 ± 0.042
LSM1 (UniProt O15116)	1 ± 0.093	1 ± 0.073	1.01 ± 0.11	0.945 ± 0.022	0.985 ± 0.054	0.962 ± 0.098

Target	NP40-soluble protein abundance (concentration: 1mM)	NP40-soluble protein abundance (concentration: 2mM)	NP40-soluble protein abundance (concentration: 4mM)	NP40-soluble protein abundance (concentration: 6mM)	NP40-soluble protein abundance (concentration: 8mM)	NP40-soluble protein abundance (concentration: 10mM)
PFDN6 (UniProt O15212)	0.855 ± 0.079	0.828 ± 0.065	0.803 ± 0.084	0.881 ± 0.085	0.795 ± 0.056	0.801 ± 0.067
UniProt O00499-2|O00499-6|O00499-4|O00499-7|O00499-9	0.985 ± 0.067	0.988 ± 0.039	0.959 ± 0.029	1.02 ± 0.034	0.9248 ± 0.0063	0.919 ± 0.041
NDUFS5 (UniProt O43920)	1.01 ± 0.05	0.983 ± 0.012	0.963 ± 0.016	0.988 ± 0.064	0.977 ± 0.066	0.941 ± 0.068
UniProt O43172-2|O43172	1.08 ± 0.027	1.061 ± 0.0038	1.08 ± 0.022	1.14 ± 0.022	1.2 ± 0.018	1.21 ± 0.043
YKT6 (UniProt O15498)	0.989 ± 0.03	0.9545 ± 0.007	0.916 ± 0.017	1.01 ± 0.041	0.922 ± 0.035	0.932 ± 0.042
UniProt O43402	1.035 ± 0.0073	1.006 ± 0.0079	1.02 ± 0.061	0.991 ± 0.014	0.979 ± 0.041	0.96 ± 0.027
UniProt O00221 and related entries	0.995 ± 0.1	0.994 ± 0.026	0.973 ± 0.061	1.02 ± 0.12	0.924 ± 0.093	0.938 ± 0.045
UniProt O43670-2|X6R4W8	1.1 ± 0.036	1.13 ± 0.034	1.12 ± 0.037	1.19 ± 0.08	1.1648 ± 0.0011	1.177 ± 0.005
SPTBN2 (UniProt O15020)	0.953 ± 0.021	0.975 ± 0.018	0.9876 ± 0.0061	1.014 ± 0.0027	0.9914 ± 0.0086	1.01 ± 0.014
UniProt O15111	1.04 ± 0.097	1.04 ± 0.079	1.04 ± 0.091	0.924 ± 0.11	1.02 ± 0.052	1.05 ± 0.059
SCO2 (UniProt O43819)	0.984 ± 0.064	0.966 ± 0.02	0.979 ± 0.021	0.96 ± 0.033	0.992 ± 0.061	0.983 ± 0.036
FOXO3 (UniProt O43524)	0.904 ± 0.068	0.919 ± 0.018	0.961 ± 0.12	0.926 ± 0.031	0.88 ± 0.04	0.882 ± 0.028
M0R0P8 and related entries (UniProt Q13459)	1.06 ± 0.024	1.03 ± 0.034	1.02 ± 0.017	1.01 ± 0.035	1.01 ± 0.032	1.01 ± 0.042
PSMD9 (UniProt O00233)	0.955 ± 0.044	0.921 ± 0.031	0.875 ± 0.024	0.954 ± 0.034	0.893 ± 0.013	0.893 ± 0.046
MPHOSPH10 (UniProt O00566)	0.997 ± 0.058	1.03 ± 0.024	1.02 ± 0.025	1.13 ± 0.062	1.06 ± 0.011	1.05 ± 0.078
UniProt O43665 and related entries	0.915 ± 0.089	0.869 ± 0.09	0.893 ± 0.014	0.9374 ± 0.0081	0.919 ± 0.028	0.803 ± 0.13
UniProt O00592 and related entries	0.971 ± 0.13	0.9819 ± 0.0056	0.934 ± 0.067	0.968 ± 0.077	0.963 ± 0.026	0.878 ± 0.071
SPTLC2 (UniProt O15270)	1.02 ± 0.13	1.02 ± 0.099	0.983 ± 0.08	0.909 ± 0.11	1.03 ± 0.05	1.03 ± 0.061
UniProt O43598 and related entries	0.895 ± 0.018	0.938 ± 0.022	0.889 ± 0.013	0.918 ± 0.025	0.873 ± 0.017	0.865 ± 0.043
UniProt O14686 and related entries	0.977 ± 0.03	0.966 ± 0.031	0.971 ± 0.034	1 ± 0.049	0.949 ± 0.028	0.975 ± 0.013

Three entries drawn at random from the list so far:
Target	NP40-soluble protein abundance (concentration: 1mM)	NP40-soluble protein abundance (concentration: 2mM)	NP40-soluble protein abundance (concentration: 4mM)	NP40-soluble protein abundance (concentration: 6mM)	NP40-soluble protein abundance (concentration: 8mM)	NP40-soluble protein abundance (concentration: 10mM)
SCO2 (UniProt O43819)	0.984 ± 0.064	0.966 ± 0.02	0.979 ± 0.021	0.96 ± 0.033	0.992 ± 0.061	0.983 ± 0.036
UniProt O43172-2|O43172	1.08 ± 0.027	1.061 ± 0.0038	1.08 ± 0.022	1.14 ± 0.022	1.2 ± 0.018	1.21 ± 0.043
PFDN6 (UniProt O15212)	0.855 ± 0.079	0.828 ± 0.065	0.803 ± 0.084	0.881 ± 0.085	0.795 ± 0.056	0.801 ± 0.067

Continued:

Target	NP40-soluble protein abundance (concentration: 1mM)	NP40-soluble protein abundance (concentration: 2mM)	NP40-soluble protein abundance (concentration: 4mM)	NP40-soluble protein abundance (concentration: 6mM)	NP40-soluble protein abundance (concentration: 8mM)	NP40-soluble protein abundance (concentration: 10mM)
UniProt O14530 and related entries	1 ± 0.047	0.956 ± 0.12	0.922 ± 0.13	0.944 ± 0.14	0.93 ± 0.14	0.972 ± 0.098
M0R0F0 and related entries (UniProt P46782)	0.898 ± 0.066	0.886 ± 0.11	0.837 ± 0.091	0.825 ± 0.1	0.757 ± 0.073	0.812 ± 0.083
UniProt O00267 and related entries	1.03 ± 0.025	1.03 ± 0.03	0.9963 ± 0.0094	0.977 ± 0.034	0.982 ± 0.012	0.994 ± 0.014
UniProt O60333-2|O60333-3	0.961 ± 0.022	0.951 ± 0.037	0.91 ± 0.063	0.915 ± 0.052	0.935 ± 0.07	0.91 ± 0.054
UniProt O43736 and related entries	0.964 ± 0.062	0.92 ± 0.042	0.902 ± 0.046	0.905 ± 0.043	0.921 ± 0.078	0.932 ± 0.077
UniProt O60343 and related entries	1.01 ± 0.029	0.968 ± 0.021	0.966 ± 0.021	0.945 ± 0.044	0.953 ± 0.022	0.959 ± 0.054
IPO8 (UniProt O15397)	1.01 ± 0.016	0.991 ± 0.019	0.972 ± 0.025	0.981 ± 0.02	0.9689 ± 0.0088	0.962 ± 0.015
MAST3 (UniProt O60307)	1.3 ± 0.14	1.33 ± 0.15	1.34 ± 0.2	1.33 ± 0.14	1.28 ± 0.14	1.31 ± 0.12
PDCD5 (UniProt O14737)	0.888 ± 0.07	0.905 ± 0.073	0.936 ± 0.052	1.05 ± 0.17	0.904 ± 0.014	0.886 ± 0.082
PMM2 (UniProt O15305)	1.01 ± 0.039	0.971 ± 0.043	0.972 ± 0.034	0.979 ± 0.071	0.992 ± 0.058	0.972 ± 0.058
CASC3 (UniProt O15234)	0.994 ± 0.098	1 ± 0.056	1.01 ± 0.073	1.06 ± 0.096	1.05 ± 0.045	1.04 ± 0.017
ARPC3 (UniProt O15145)	1.04 ± 0.11	0.968 ± 0.028	0.946 ± 0.093	0.945 ± 0.03	0.997 ± 0.054	0.894 ± 0.063
NDC80 (UniProt O14777)	0.927 ± 0.084	0.919 ± 0.081	0.917 ± 0.081	0.958 ± 0.11	0.908 ± 0.063	0.924 ± 0.037
UniProt O00154-4|O00154-5	0.981 ± 0.056	1.01 ± 0.035	1.02 ± 0.07	0.989 ± 0.037	0.92 ± 0.031	0.982 ± 0.041
AQR (UniProt O60306)	1.07 ± 0.11	1.03 ± 0.071	1.03 ± 0.068	0.972 ± 0.083	1.08 ± 0.04	1.04 ± 0.07
MAFG (UniProt O15525)	0.948 ± 0.069	1 ± 0.034	1.01 ± 0.035	1.06 ± 0.073	0.98 ± 0.02	0.963 ± 0.058
RAD21 (UniProt O60216)	0.966 ± 0.046	0.982 ± 0.049	0.965 ± 0.037	1 ± 0.056	0.953 ± 0.032	0.978 ± 0.021
WASL (UniProt O00401)	0.98 ± 0.038	0.919 ± 0.084	0.963 ± 0.1	0.952 ± 0.034	0.917 ± 0.015	0.991 ± 0.069
UniProt O43251-6|O43251-8	1.08 ± 0.094	1.08 ± 0.046	1.13 ± 0.12	1.06 ± 0.2	0.999 ± 0.11	1.18 ± 0.014
M0R0C6 and related entries (UniProt Q92945)	0.944 ± 0.062	0.947 ± 0.027	0.935 ± 0.038	0.976 ± 0.038	0.913 ± 0.013	0.908 ± 0.028

— the supplement of paper PMC6411743
